In patent US20190374627A1, “TARGET PEPTIDES FOR CANCER THERAPY AND DIAGNOSTICS” (priority 2016, published 2019):

Key:
Parameters in all cases: key: The presence of phosphopeptides in previously analyzed samples including leukemia, colorectal cancer, melanoma, ovarian cancer, breast cancer, and esophageal cancer is indicated by ✓
colorectal cancer = assay: Presence of the phosphopeptide in previously analyzed colorectal cancer samples
leukemia = assay: Presence of the phosphopeptide in previously analyzed leukemia samples
melanoma = assay: Presence of the phosphopeptide in previously analyzed melanoma samples

Substance	Colorectal (colorectal cancer)	Leukemia (leukemia)	Melanoma (melanoma)
86 (FPRRHSVTL; (6)...(6) The amino acid at this position is optionally phosphorylated; listed as Homo sapiens) [compound 86]	✓	✓	✓
91 (GPRSASLL; (6)...(6) The amino acid at this position is optionally phosphorylated; listed as Homo sapiens) [compound 91]	✓	✓	✓
92 (GPRSASLLSL; (6)...(6) The amino acid at this position is optionally phosphorylated; listed as Homo sapiens) [compound 92]	✓	✓	✓
94 (GPRSPKAPP; (4)...(4) The amino acid at this position is optionally phosphorylated; listed as Homo sapiens) [compound 94]	✓	✓	✓
97 (KPASPKFIVTL; (4)...(4) The amino acid at this position is optionally phosphorylated; listed as Homo sapiens) [compound 97]	✓	✓	✓
101 (KPRRFSRSL; (6)...(6) The amino acid at this position is optionally phosphorylated; (8)...(8) The amino acid at this position is optionally phosphorylated; listed as Homo sapiens) [compound 101]	✓	✓	✓
108 (KPVSPKSGTL; (4)...(4) The amino acid at this position is optionally phosphorylated; listed as Homo sapiens) [compound 108]	–	✓	✓
109 (KPYSPLASL; (4)...(4) The amino acid at this position is optionally phosphorylated; listed as Homo sapiens) [compound 109]	✓	✓	✓
118 (MPRQPSATRL; (6)...(6) The amino acid at this position is optionally phosphorylated; listed as Homo sapiens) [compound 118]	✓	✓	✓
123 (RPAFFSPSL; (6)...(6) The amino acid at this position is optionally phosphorylated; listed as Homo sapiens) [compound 123]	–	✓	✓
124 (RPAKSMDSL; (5)...(5) The amino acid at this position is optionally phosphorylated; listed as Homo sapiens) [compound 124]	✓	✓	✓
125 (RPASAGAML; (4)...(4) The amino acid at this position is optionally phosphorylated; listed as Homo sapiens) [compound 125]	✓	✓	✓
142 (RPKLSSPAL; (6)...(6) The amino acid at this position is optionally phosphorylated; listed as Homo sapiens) [compound 142]	✓	✓	✓
146 (RPKTPPVVI; (4)...(4) The amino acid at this position is optionally phosphorylated; listed as Homo sapiens) [compound 146]	✓	✓	✓
151 (RPPSPGPVL; (4)...(4) The amino acid at this position is optionally phosphorylated; listed as Homo sapiens) [compound 151]	–	✓	✓
155 (RPRANSGGVDL; (6)...(6) The amino acid at this position is optionally phosphorylated; listed as Homo sapiens) [compound 155]	✓	✓	✓
160 (RPRIPSPIGF; (6)...(6) The amino acid at this position is optionally phosphorylated; listed as Homo sapiens) [compound 160]	–	✓	✓
162 (RPRPHSAPSL; (6)...(6) The amino acid at this position is optionally phosphorylated; listed as Homo sapiens) [compound 162]	✓	✓	✓
169 (RPRSAVLL; (4)...(4) The amino acid at this position is optionally phosphorylated; listed as Homo sapiens) [compound 169]	✓	✓	✓

Substance	Colorectal (colorectal cancer)	Leukemia (leukemia)	Melanoma (melanoma)
179 (RPRSPPSSP; (4)...(4) The amino acid at this position is optionally phosphorylated; listed as Homo sapiens) [compound 179]	–	✓	✓
197 (RPVTPVSDL; (4)...(4) The amino acid at this position is optionally phosphorylated; listed as Homo sapiens) [compound 197]	✓	✓	✓
200 (RPYSPPFFSL; (4)...(4) The amino acid at this position is optionally phosphorylated; listed as Homo sapiens) [compound 200]	–	✓	✓
208 (SPKSPGLKA; (4)...(4) The amino acid at this position is optionally phosphorylated; listed as Homo sapiens) [compound 208]	✓	✓	✓
213 (SPRSPSTTYL; (6)...(6) The amino acid at this position is optionally phosphorylated; listed as Homo sapiens) [compound 213]	✓	✓	✓
214 (SPSSPSVRRQL; (4)...(4) The amino acid at this position is optionally phosphorylated; listed as Homo sapiens) [compound 214]	–	✓	✓
239 (KRLSPAPQL; (4)...(4) The amino acid at this position is optionally phosphorylated; listed as Homo sapiens) [compound 239]	✓	✓	✓
279 (RRSSQSWSL; (4)...(4) The amino acid at this position is optionally phosphorylated; listed as Homo sapiens) [compound 279]	✓	✓	✓
282 (RRYSPPIQR; (4)...(4) The amino acid at this position is optionally phosphorylated; listed as Homo sapiens) [compound 282]	–	✓	✓
304 (IYQYIQSRF; (4)...(4) The amino acid at this position is optionally phosphorylated; listed as Homo sapiens) [compound 304]	✓	✓	✓
309 (KLRSPFLQK; (4)...(4) The amino acid at this position is optionally phosphorylated; listed as Homo sapiens) [compound 309]	–	✓	✓
312 (KTPTSPLKMK; (5)...(5) The amino acid at this position is optionally phosphorylated; listed as Homo sapiens) [compound 312]	–	✓	✓
315 (RAKSPISLK; (4)...(4) The amino acid at this position is optionally phosphorylated; listed as Homo sapiens) [compound 315]	✓	✓	✓
328 (RTASPPPPPK; (4)...(4) The amino acid at this position is optionally phosphorylated; listed as Homo sapiens) [compound 328]	–	✓	✓
342 (EELSPTAKF; (4)...(4) The amino acid at this position is optionally phosphorylated; listed as Homo sapiens) [compound 342]	✓	✓	–
372 (KRASFAKSV; (4)...(4) The amino acid at this position is optionally phosphorylated; listed as Homo sapiens) [compound 372]	–	✓	✓
384 (RADSPVHM; (4)...(4) The amino acid at this position is optionally phosphorylated; listed as Homo sapiens) [compound 384]	✓	✓	–
431 (RTSSFALNL; (4)...(4) The amino acid at this position is optionally phosphorylated; listed as Homo sapiens) [compound 431]	–	✓	✓
